According to publication PMC6779431:
These are yes or no findings as the source states them, for the method shown. Binding seen in cells or lysates may run through a third protein. Some binding calls cover weakened binding; strength is not graded here. Tags and fused reporters may be left off the sequences shown. One block for each binder: values may come before it.

Tests used:
[1] = target: RTP4 fused with Lg and Sm at the C terminus (UniProt Q9ER80); test: split reporter; Nano-Glo Live Cell Assay in HEK293T cells, pBiT vectors, Lg and Sm fused at the C termini, 24 h after transfection
[2] = target: RTP2 fused with Lg and Sm at the C terminus (mouse) (UniProt Q80ZI2); test: as above

binding [1]: binds
B1: RTP4 fused with Lg and Sm at the C terminus (protein, UniProt Q9ER80 1-249)
chain: MLFPDDFSTWEQTFQELMQEEKPGAKWSLHLDKNIVPDGAALGWRQHQQTVLGRFQCSRCCRSWTSAQVMILCHMYPDTLKSQGQARMRIFGQKCQKCFGCQFETPKFSTEIIKRILNNLVNYILQRYYGHRKIALTSNASLGEKVTLDGPHDTRNCEACSLNSHGRCALAHKVKPPRSPSPLPKSSSPSKSCPPPPQTRNTDFGNKTFQDFGNRTFQGCREPPQREIEPPLFLFLSIAAFALFSLFTR

binding [2]: binds
B2: RTP2 fused with Lg and Sm at the C terminus (protein, UniProt Q80ZI2 1-223)
chain: MSTSLTTCEWKKVFYEKMEVAKPADSWELIIDPTLKPNELGPGWKQYLEQHASGRFHCSWCWHTWQSANVVILFHMHLDRAQRVGSVRMRVFKQLCYQCGTSRLDESSMLEENIEGLVDNLITSLREQCYDEDGGQYRIHVASRPDSGLHRSEFCEACQEGIVHWKPSEKLLEEDAAYTDASKKKGQAGFISSFFSFRWCLFWGTLCLVIVYLQFFRGRSGFL
